# Several values for one entry are separate records, joined by “and”; a condition that tells them apart may be missing. Identical values can stand only once. The list shows a part of the results. Each value is one well over the wells without odorant, computed here; the data are noisy.
# Tests used:
# Experiment in all cases: odorant receptor activation (CRE luciferase / Renilla) (fold of no-odor wells); higher = more activation
# Settings in all cases: 100 µM
# [1] = tested on: OR52N4 T106I/L167R/N218I clone 1127
# OR52N5 clone 1238 = tested on: OR52N5 clone 1238
# OR52P1 clone 1221 = tested on: OR52P1 clone 1221
# [2] = tested on: OR52R1 I129T/N201Y/S245A clone 1705
# OR52W1 clone 1234 = tested on: OR52W1 clone 1234
# OR56A1 clone 1114 = tested on: OR56A1 clone 1114
# OR56A3 M51T clone 1128 = tested on: OR56A3 M51T clone 1128
# OR56A4 clone 1724 = tested on: OR56A4 clone 1724
# OR56A5 clone 1708 = tested on: OR56A5 clone 1708
# OR56B1 C106R clone 1168 = tested on: OR56B1 C106R clone 1168
# OR56B4 P277S clone 1224 = tested on: OR56B4 P277S clone 1224
# OR5A1 I52V clone 1131 = tested on: OR5A1 I52V clone 1131
# OR5A1 clone 1130 = tested on: OR5A1 clone 1130
# OR5A1 clone 1507 = tested on: OR5A1 clone 1507
# OR5A2 clone 1132 = tested on: OR5A2 clone 1132
# OR5AC2 M200I clone 1490 = tested on: OR5AC2 M200I clone 1490
# OR5AK2 M92I clone 1335 = tested on: OR5AK2 M92I clone 1335
# OR5AK2 clone 1438 = tested on: OR5AK2 clone 1438
# OR5AK3 clone 1336 = tested on: OR5AK3 clone 1336
# OR5AL1 clone 1362 = tested on: OR5AL1 clone 1362
SMILES,odorant receptor activation [1],odorant receptor activation (OR52N5 clone 1238),odorant receptor activation (OR52P1 clone 1221),odorant receptor activation [2],odorant receptor activation (OR52W1 clone 1234),odorant receptor activation (OR56A1 clone 1114),odorant receptor activation (OR56A3 M51T clone 1128),odorant receptor activation (OR56A4 clone 1724),odorant receptor activation (OR56A5 clone 1708),odorant receptor activation (OR56B1 C106R clone 1168),odorant receptor activation (OR56B4 P277S clone 1224),odorant receptor activation (OR5A1 I52V clone 1131),odorant receptor activation (OR5A1 clone 1130),odorant receptor activation (OR5A1 clone 1507),odorant receptor activation (OR5A2 clone 1132),odorant receptor activation (OR5AC2 M200I clone 1490),odorant receptor activation (OR5AK2 M92I clone 1335),odorant receptor activation (OR5AK2 clone 1438),odorant receptor activation (OR5AK3 clone 1336),odorant receptor activation (OR5AL1 clone 1362)
CCCCCCCCC=O [nonyl aldehyde],0.865,1.01,1.13,0.996,0.644,1.23,0.967,1.34,1.35,0.997,1.04,0.909,1.04,1.06,0.982,0.959,0.809,1.09,0.951,1.44
CCCCCCCCOC(C)=O [octyl acetate],0.965,0.848,1.02,1.15,0.754,0.876,1.26,0.653,1.2,0.891,0.899,0.794,0.903,1.12,0.819,1.04,1.11,1.21,0.891,1.43
CC(=O)c1ccccc1 [acetophenone],–,–,1.19,–,–,0.701,1.19,–,–,1.04,1.1,1.12,1.05,0.766 and 0.703,2,1.19 and 1.12,0.565,1.03,1.76,0.923
CCCCCC(=O)O [caproic acid],0.743,0.521,1.1,0.66,0.862,0.932,1.11,0.716,0.9,1.17,1.25,1.11,1.06,0.891,0.933,0.762,0.71,0.214,1.08,0.222
"CC1CCC(C(C)C)C(O)C1 (single isomer, unassigned; (+)) [(+)-menthol]",0.719,0.675,1.25,1.21,0.981,18.5,1.49,0.75,1.04,0.689,1.16,0.634,1.54,0.937,1.55,0.986,0.718,1.64,0.9,1.43
COc1cc(C)ccc1O [2-methoxy-4-methylphenol],0.959,0.738,1.15,1.05,0.993,9.51,1.03,0.868,1.06,0.846,1.15,1.14,1.79,0.725,1.26,0.856,0.982,1.4,0.886,1.51
CCCCCC(C)=O [2-heptanone],–,–,1.09,–,–,0.682,1.18,–,–,1.36,0.984,0.968,0.931,1.11 and 0.654,1.36,1.07 and 0.75,0.781,0.892,0.925,0.956
CC1COCc2cc3c(cc21)C(C)(C)C(C)C3(C)C (stereo not drawn) [galaxolide],0.729 and 0.849,0.204 and 0.238,2.71,2.43 and 1.2,0.483 and 1.29,2.97,0.915,0.85 and 0.738,1.97 and 1.26,0.818,0.787,0.909,0.697,8.34 and 4.58,0.841,–,–,2.93,5.08 and 5.04,4.38
CCCCCCCCCC=O [decyl aldehyde],1.05,1.29,1.4,0.752,1.16,1.19,1.41,3.26,0.952,1.3,1.2,1.29,1.04,1.21,1.32,1.2,1.62,2.1,1.3,1.58
C=CCc1ccc(OC(C)=O)c(OC)c1 [eugenol acetate],0.932,1.89,1.67,2.29,1.24,1.25,1.69,2.35,2.88,1.84,1.52,2.03,1.71,1.61,2.14,1.74,1.93,1.52,1.6,1.48
CCCCCCC=O [heptaldehyde],1.54,1.16,0.298 and 0.799,0.954,1.29,0.823 and 1.19,–,0.797,0.608,0.479 and 1.11,0.367 and 0.927,0.349 and 0.955,0.361 and 0.806,–,0.564 and 0.878,–,–,0.951 and 0.702,–,1 and 0.827
c1ccc(Oc2ccccc2)cc1 [diphenyl ether],1.02,0.987,1.02,0.743,1.07,0.778,1.13,0.606,0.921,0.701,0.968,1.14,1.1,1.13,1.09,1.2,1.09,1.12,0.949,0.891
C=C(C)C1CC=C(C)C(=O)C1 (stereo not drawn) [r-carvone],0.785,0.787,0.966,0.96,0.751,0.993,1.02,0.599,1.11,1.08,1.1,0.811,1.06,1.13,0.951,1.01,0.818,1.27,0.802,1.1
CCCC(=O)O [butyric acid],0.988,0.532,1.17,0.783,1.09,0.983,0.983,0.71,0.992,1.1,1.03,0.939,0.78,1.28,1.23,1.15,0.665,0.21,1.05,0.259
CC1=NC(C)SC1C (stereo not drawn),–,–,1.26,–,–,0.655,0.757,–,–,0.754,1.27,0.777,0.717,1.04 and 1.08,0.862,1.24 and 0.646,0.949,1.1,1.59,0.94
C=C(C)C1CCC2=CC(=O)CC(C)C2(C)C1 (stereo not drawn) [amyl laurate],2.12,1.37,–,1.8,2.69,–,–,1.1,1.97,–,–,–,–,–,–,–,–,–,–,–

SMILES,odorant receptor activation [1],odorant receptor activation (OR52N5 clone 1238),odorant receptor activation (OR52P1 clone 1221),odorant receptor activation [2],odorant receptor activation (OR52W1 clone 1234),odorant receptor activation (OR56A1 clone 1114),odorant receptor activation (OR56A3 M51T clone 1128),odorant receptor activation (OR56A4 clone 1724),odorant receptor activation (OR56A5 clone 1708),odorant receptor activation (OR56B1 C106R clone 1168),odorant receptor activation (OR56B4 P277S clone 1224),odorant receptor activation (OR5A1 I52V clone 1131),odorant receptor activation (OR5A1 clone 1130),odorant receptor activation (OR5A1 clone 1507),odorant receptor activation (OR5A2 clone 1132),odorant receptor activation (OR5AC2 M200I clone 1490),odorant receptor activation (OR5AK2 M92I clone 1335),odorant receptor activation (OR5AK2 clone 1438),odorant receptor activation (OR5AK3 clone 1336),odorant receptor activation (OR5AL1 clone 1362)
CCCCO [1-butanol],0.797,0.65,0.963,1.23,0.795,16.5,1.88,0.978,1.07,0.944,0.925,0.765,1.38,1.17,1.25,1.04,0.803,1.44,0.943,1.34
CCC1(O)C2(C)CCC(C2)C1(C)C (stereo not drawn) [2-ethylfenchol],0.737,0.714,1.2,1.06,0.928,20.1,1.73,0.858,1.19,0.49,1.15,0.926,1.56,1.02,1.32,1.01,0.865,1.13,1.03,0.968
CC/C=C\CCO [cis-3-hexen-1-ol],0.809,0.78,1.04,1.13,1.07,0.8,1.01,0.843,1.16,1.16,1.16,0.973,0.965,0.868,0.911,0.932,0.822,0.232,1.12,0.22
C=CCc1ccc(O)c(OC)c1 [eugenol],0.997,1.6,2.77 and 1.3,1.41,0.988,0.687 and 1.09,2.54 and 1.34,1.18,1.21,2.57 and 1.25,2.09 and 1.17,1.95 and 1.27,2.33 and 1.21,1.45 and 0.906 and 1.24,–,2.11 and 0.834 and 1.34,1.45 and 1.46,1.48 and 1.39,–,1.24 and 1.18
CC=Cc1ccc(O)c(OC)c1 [isoeugenol],5.35,3.38,2.51,1.68,3.29,1.13,1.25,3.83,1.47,0.878,1.02,1.32,1.06,1.91 and 1.6,0.759,0.884 and 2.24,2.81 and 1.07,1.26,1.81 and 1.02,1.67
C=CCSCC=C [diallyl sulfide],1.07,0.929,0.983,0.684,1.02,0.814,1.01,0.63,0.862,0.923,1.27,1.3,0.958,1.07,1.12,1.27,0.91,1.29,1.03,1.24
CC(C)(O)CCCC1=CCC(C=O)CC1 (stereo not drawn) [lyral],1.1,1.15,–,0.905,1.27,–,–,0.911,1.22,–,–,–,–,–,–,–,–,–,–,–
CC12C=CCC1C1CCC3CC(=O)CCC3(C)C1CC2 (stereo not drawn) [androstenone],–,–,6.32,–,–,10.8,9.87,–,–,4.14,8.16,4.38,7.19,0.994,6,1.17,1.37,1.11,1.18,1.24
CC(C)(C)c1ccc(CCC=O)cc1 [bourgeonal],–,–,0.718,–,–,0.698,0.693,–,–,0.881,0.684,0.861,0.772,0.858,0.828,0.78,0.533,0.158,0.794,0.16
CC12C=CCC1C1CCC3=CC(=O)CCC3(C)C1CC2 (stereo not drawn) [androstadienone],–,–,1.17,–,–,1.12,0.897,–,–,1.22,0.807,1.09,1.11,0.98 and 1.13,0.785,0.809 and 1.3,2.06 and 1,0.909,1.58 and 1.01,0.965
COC(=O)c1ccccc1 [methyl benzoate],–,–,0.726,–,–,1.21,1.15,–,–,0.988,0.961,1.23,1.01,0.931 and 1.1,1.11,0.798 and 1.04,0.559,0.756,0.488,0.853
O=C1CCCCC1 [Cyclohexanone],–,–,0.938,–,–,0.838,0.95,–,–,0.761,0.792,0.875,0.637,0.674 and 1.03,0.944,0.618 and 0.962,0.655,0.799,0.547,0.862
C=C(C)C1CC=CCC1 (stereo not drawn) [r-limonene],0.958,1.08,1.16 and 0.494,0.984,0.745,1.51 and 0.944,1.07 and 0.387,0.854,1.01,1.34 and 0.453,1.15 and 0.472,0.831 and 0.458,1.15 and 0.632,1.13 and 0.946 and 0.754,–,0.999 and 0.577 and 1.2,–,1.45 and 0.833,0.901 and 0.394,1.27 and 1.16
CC(C)C(=O)O [isobutyric acid],1.08,0.997,0.96,0.848,0.814,0.603,0.95,0.773,1.23,1.21,1.19,1.21,1,0.96 and 1.11,0.927,0.719 and 1.1,1.49 and 0.857,0.733,1.48 and 0.825,0.954
C=CCc1ccc(OC)c(OC)c1 [eugenol methyl ether],1.49,1.13,1.45,0.744,0.907,1.05,1.45,0.68,0.571,1.35,1.67,1.34,1.39,1.17,1.85,1.39,1.65,1.65,1.35,1.43
